Results reported in PubChem BioAssay AID1671190 (National Center for Advancing Translational Sciences (NCATS), 2021).
In all, about 580,000 compounds went through this assay and about 6,100 (1.1%) were called active. Inconclusive means that the source gave no clear call. Such entries were picked first, then a sample of the others. Calls come from the whole dose curve; as a rule, active = well fitted inhibition curve with a large enough effect; inconclusive = small, poorly fitted or top-dose-only effect, or another doubt; inactive = no such curve, though single readings can be large or run the other way. Potencies beside an inconclusive call are fits to weak or partial responses and may not hold up.

Protein sequences, listed by entry. Tags and fused reporters are not part of them. Lines headed by an entry give the natural chain unless they say otherwise; changes in a name come on top.
UniProt P18054: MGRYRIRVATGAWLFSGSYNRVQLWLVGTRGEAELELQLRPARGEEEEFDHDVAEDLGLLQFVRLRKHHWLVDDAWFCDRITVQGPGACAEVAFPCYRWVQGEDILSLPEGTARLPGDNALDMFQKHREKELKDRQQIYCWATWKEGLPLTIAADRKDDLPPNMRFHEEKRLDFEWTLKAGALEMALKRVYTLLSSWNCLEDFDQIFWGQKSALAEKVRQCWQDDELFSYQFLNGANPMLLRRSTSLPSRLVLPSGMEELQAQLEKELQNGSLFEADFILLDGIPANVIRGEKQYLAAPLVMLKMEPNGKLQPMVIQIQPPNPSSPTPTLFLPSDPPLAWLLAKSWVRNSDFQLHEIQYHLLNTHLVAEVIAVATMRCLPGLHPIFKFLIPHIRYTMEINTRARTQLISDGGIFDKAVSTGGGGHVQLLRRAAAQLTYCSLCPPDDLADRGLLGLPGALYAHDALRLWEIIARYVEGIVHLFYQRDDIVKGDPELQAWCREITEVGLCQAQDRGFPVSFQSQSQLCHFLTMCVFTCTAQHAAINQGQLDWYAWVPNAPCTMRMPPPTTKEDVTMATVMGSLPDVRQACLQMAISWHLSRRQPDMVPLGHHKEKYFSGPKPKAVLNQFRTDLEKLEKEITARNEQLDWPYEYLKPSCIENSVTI

Each molecule was assayed against Polyunsaturated fatty acid lipoxygenase ALOX12 (Homo sapiens) (UniProt P18054) (assay: Primary qHTS assay for inhibitors of human arachidonate 12S-lipoxygenase (ALOX12): Round 2). Settings: purified 12hLO, xylenol orange hydroperoxide absorbance; activity change, negative = inhibition: at 108 µM (top of the series) unless noted.
Summary of the method: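 Hydroperoxide product was detected by ferrous iron/xylenol orange as the 573 to 405 nm absorbance ratio. Arachidonic acid at 40 uM (final) was turned over for 30 min at room temperature by 150 nM human 12hLO, pH 7.0 Hepes buffer, after 15 min compound preincubation.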
% is set by controls: 0 for no effect and ±100 for the full control effect; potency is the fitted concentration of half-maximal effect.

Row | Structure (SMILES) | Potency | activity change, negative = inhibition
1 | O=C1C2=C(Nc3ccccc3SC2c2ccc(O)cc2)c2ccccc21 (stereo unspecified) | inconclusive: 39.8 µM [inhibitor, partial curve, poor fit] | 
2 | CC(=O)Nc1nnc2n1CCS2 | inconclusive: 1.26 µM [inhibitor, full curve, poor fit] | 
3 | Cc1ccc(OCCCNCCO)c(Br)c1 |  | inactive: 0%
4 | O=C(NNC1CC(=O)N(c2ccc(Br)cc2)C1=O)c1cccs1 (stereo unspecified) | inconclusive: 15.8 µM [inhibitor, single point] | 
5 | COc1ccc(CC(=O)N2CNC(=O)C23CCN(C(=O)[C@@H](N)c2ccccc2)CC3)cc1 |  | inactive: 9.24% [at 6.33 µM]
6 | Cc1ccc(CN2CCC(CNC(=O)Nc3ccc(C)c(C)c3)C2)cc1 (stereo unspecified) | inconclusive: 56.2 µM [inhibitor, partial curve, poor fit] | 
7 | O=C(NCc1ccco1)c1sc2cc(Cl)ccc2c1Cl | inconclusive: 44.7 µM [inhibitor, partial curve, poor fit] | 
8 | O=c1c2sccc2ncn1Cc1coc(-c2ccccc2Cl)n1 | inconclusive: 100 µM [inhibitor, single point] | 
9 | FC(F)(F)c1cccnc1Oc1ccc(C2=NCCS2)cc1 | inconclusive: 100 µM [inhibitor, single point] | 
10 | COc1ccc(C(=O)NC[C@H]2O[C@@H](CC(=O)NCCN(C)C)[C@H](O)[C@@H]2O)cc1 | inconclusive: 12.6 µM [inhibitor, full curve, poor fit] | 
11 | CC[C@H]1CN(C(=O)c2ccc(F)cc2)CC[C@H]1CC(=O)N1CCC(C(=O)OC)CC1 |  | inactive: 2.62% [at 176 µM]
12 | COC(=O)c1cc(Sc2cccc(Cl)c2Cl)ccn1 | inconclusive: 44.7 µM [inhibitor, partial curve, poor fit] | 
13 | Cc1nccn1Cc1nnc(C2CCCN(S(=O)(=O)C3CC3)C2)n1C (stereo unspecified) | inconclusive: 0.282 µM [inhibitor, full curve, poor fit] | 
14 | COc1ccc(Cl)cc1CN(C)c1cc(C2CC(N)C2)ncn1 (stereo unspecified) | inconclusive: 6.31 µM [inhibitor, partial curve] | 
15 | Cc1ccc(NC(=S)NCC(C)(C)N2CCOCC2)cc1C |  | inactive: 8.76%
16 | Cc1ccc(OC(C)C(=O)Nc2ccccc2C(=O)N2CCN(C)CC2)cc1 (stereo unspecified) | inconclusive: 0.355 µM [inhibitor, full curve, poor fit] | 
17 | Cc1noc(C)c1COC(=O)c1cc2c3ccccc3n(C)c2s1 | inconclusive: 50.1 µM [inhibitor, partial curve, poor fit] | 
18 | Cc1ccc(S(=O)(=O)N(CC(=O)Nc2ccccc2C(=O)O)c2ccc(Cl)cc2)cc1 | inconclusive: 31.6 µM [inhibitor, partial curve, poor fit] | 
19 | CN1CCN(c2ccc(NC(=O)COc3ccc(Br)cc3Br)cn2)CC1 |  | inactive: -17.7%
20 | COc1ccc(OC)c(C2/C(=C(/O)c3ccccc3)C(=O)C(=O)N2Cc2ccco2)c1 (stereo unspecified) | inconclusive: 8.91 µM [inhibitor, full curve] | 
21 | CC(=O)Nc1nc(-c2ccc3c(c2)CCO3)cs1 |  | inactive: -19%
22 | CCc1cccc(C)c1NC(=O)c1ccc2ccccc2n1 | inconclusive: 39.8 µM [inhibitor, partial curve, poor fit] | 

Row | Structure (SMILES) | Potency | activity change, negative = inhibition
23 | CN(C)CCN(C(=O)c1cccs1)c1nc2cc3c(cc2s1)OCCO3 | inconclusive: 39.8 µM [inhibitor, single point] | 
24 | COc1ccc(C)cc1NC(=O)c1oc2ccc(S(=O)(=O)N3CCC4(CC3)OCCO4)cc2c1C |  | inactive: -12.7%
25 | Cc1ccc(C)c(NC(=O)/C(C#N)=C/c2ccc(C(C)C)cc2)c1 | inconclusive: 112 µM [inhibitor, partial curve, poor fit] | 
26 | CCC[n+]1c2ccccc2cc2ccccc21 | inconclusive: 2.82 µM [inhibitor, full curve, poor fit] | 
27 | CCOc1cc(/C=N/NC(=O)C2CCCC2)ccc1O | inconclusive: 44.7 µM [inhibitor, partial curve, poor fit] | 
28 | CCOc1ccc2[nH]c(C(=O)N/N=C/c3cc(OC)c(OC)c(OC)c3)cc2c1 |  | inactive: 0%
29 | N#Cc1ccc(COC(=O)c2ccccc2-c2ccccc2C#N)cc1 | inconclusive: 79.4 µM [inhibitor, single point] | 
30 | CCOC(=O)c1ccc(N2CCN(c3cc(C)ccc3C)CC2)c(NC(=O)Nc2ccc(Cl)cc2)c1 |  | inconclusive: -31.7% [inhibitor]
31 | O=C(NCCCN1CCCC1=O)c1cn2ccnc(-c3ccc(F)cc3)c2n1 | inconclusive: 28.2 µM [inhibitor, single point] | 
32 | CCn1cnnc1CC1CCN(C(=O)C2CCCC2)C1 (stereo unspecified) | inconclusive: 6.31 µM [inhibitor, partial curve, poor fit] | 
33 | CCN(C(=O)COC(=O)c1c2c(nc3ccccc13)/C(=C/c1ccccc1)CC(C)C2)C1CCS(=O)(=O)C1 (stereo unspecified) | inconclusive: 63.1 µM [inhibitor, partial curve, poor fit] | 
34 | Nc1nccnc1C(=O)NCc1ccc(-c2ccc(F)cc2)o1 | inconclusive: 39.8 µM [inhibitor, partial curve, poor fit] | 
35 | O=C(NCC1(c2ccccc2)CCCC1)c1ccc(S(=O)(=O)N2CCOCC2)cc1 |  | inactive: -27.6%
36 | CCc1ccc(S(=O)(=O)Nc2cc(SCC(=O)O)c(O)c3ccccc23)cc1 | inconclusive: 1.41 µM [inhibitor, full curve, poor fit] | 
37 | CC(N)C12CC3CC(CC(C3)C1)C2 (stereo unspecified) | inconclusive: 35.5 µM [inhibitor, single point] | 
38 | CCN(CC)CCOC(=O)c1ccc(N/C=C(/C#N)c2nc(-c3ccc(OC)cc3)cs2)cc1 | inconclusive: 3.16 µM [inhibitor, partial curve, poor fit] | 
39 | O=C(/C(=C\c1ccccc1F)c1nc2ccccc2o1)c1ccccc1 |  | inactive: -1.53%
40 | Cc1ccc(C(=O)NCCSC2CCCC2)s1 |  | inactive: -27.3%
41 | O=C(Nc1ccccc1N1CCCC1)c1cccc(-c2cc3ccccc3oc2=O)c1 |  | inactive: 5.65%
42 | CCCc1nnc(NC(=O)Nc2ccccc2Cl)s1 |  | inconclusive: -34.2% [inhibitor]
43 | Cc1cc(C)nc(N2CCN(C(=O)C3CCN(CC(N)=O)CC3)CC2)n1 |  | inactive: 2.35%
44 | COc1ccc2sc(N(CCCN(C)C)C(=O)c3ccc(S(=O)(=O)N(C)Cc4ccccc4)cc3)nc2c1 | inconclusive: 44.7 µM [inhibitor, partial curve, poor fit] | 

Five records drawn at random from those above:
Row | Structure (SMILES) | Potency | activity change, negative = inhibition
3 | Cc1ccc(OCCCNCCO)c(Br)c1 |  | inactive: 0%
27 | CCOc1cc(/C=N/NC(=O)C2CCCC2)ccc1O | inconclusive: 44.7 µM [inhibitor, partial curve, poor fit] | 
36 | CCc1ccc(S(=O)(=O)Nc2cc(SCC(=O)O)c(O)c3ccccc23)cc1 | inconclusive: 1.41 µM [inhibitor, full curve, poor fit] | 
41 | O=C(Nc1ccccc1N1CCCC1)c1cccc(-c2cc3ccccc3oc2=O)c1 |  | inactive: 5.65%
43 | Cc1cc(C)nc(N2CCN(C(=O)C3CCN(CC(N)=O)CC3)CC2)n1 |  | inactive: 2.35%

(cont.)

Row | Structure (SMILES) | Potency | activity change, negative = inhibition
45 | O=C(NCCO)c1cccc(-c2cnc3c(Nc4cccc(OC(F)(F)C(F)F)c4)nccn23)c1 | inconclusive: 79.4 µM [inhibitor, single point] | 
46 | O=C(NC(O)C(=O)c1ccc(Cl)cc1)c1ccc(Br)cc1 (stereo unspecified) |  | inactive: -17.1%
47 | Cc1ccc(NC(=O)CN(C)C(=O)c2cccc(S(=O)(=O)NCc3cccs3)c2)cc1 | inconclusive: 100 µM [inhibitor, single point] | 
48 | Cn1c(N)c(C(=O)COC(=O)CSc2cccc3cccc(Cl)c23)c(=O)n(C)c1=O |  | inactive: 0.683%
49 | CCOc1ccc(OCC)c(NC(=O)C2CCCN(S(=O)(=O)c3cc(Br)cc4c3N(C(=O)CC)CC4)C2)c1 (stereo unspecified) |  | inactive: -0.0641%
50 | Cn1cnc2c1c(=O)n(CCCSCc1c(F)cccc1Cl)c(=O)n2C |  | inactive: 13.9%
51 | CCCCCCn1nc(C(=O)Nc2ccc(OC)c(OC)c2)c2ccccc2c1=O | inconclusive: 79.4 µM [inhibitor, partial curve, poor fit] | 
52 | Cc1cccc(/C=N/N(CCO)C2=NS(=O)(=O)c3ccccc32)c1 |  | inactive: 11.8%
53 | O=C(/C=C/NNC(=O)c1cccc(Br)c1)c1cccc(Br)c1 | inconclusive: 12.6 µM [inhibitor, full curve] | 
54 | O=C(CSc1nnc(-c2cccnc2)o1)Oc1ccccc1 |  | inactive: 8.34%
55 | COc1ccc2[nH]cc(CCNc3cc(-c4ccc(C(=O)N(C)C)cc4)ncn3)c2c1 | inconclusive: 50.1 µM [inhibitor, partial curve, poor fit] | 
56 | c1ccc(-c2nc(CN3CCCC3c3ccsc3)co2)cc1 (stereo unspecified) | inconclusive: 70.8 µM [inhibitor, partial curve, poor fit] | 
57 | CC(NCc1ccc2c(c1)OCO2)C(=O)NC1CCCc2ccccc21 (stereo unspecified) | inconclusive: 2 µM [inhibitor, full curve, poor fit] | 
58 | Cc1ccc2oc(-c3ccco3)cc(=O)c2c1 | inconclusive: 63.1 µM [inhibitor, partial curve, poor fit] | 
59 | Cc1ccc(NC(=O)CN2CCc3ccccc3C2)cc1F | inconclusive: 39.8 µM [inhibitor, partial curve, poor fit] | 
60 | Cc1ccc(C2Cn3nnc(C(=O)N4CCC(C(=O)Nc5ccc(Cl)c(C)c5)CC4)c3CO2)cc1 (stereo unspecified) | inconclusive: 56.2 µM [inhibitor, partial curve, poor fit] | 
61 | CCOc1ccc(CCNC(=O)COC(=O)c2ccc(S(C)(=O)=O)cc2)cc1OCC | inconclusive: 3.98 µM [inhibitor, full curve, poor fit] | 
62 | COc1ccc(N(CC(=O)NCc2ccc(Cl)cc2)S(=O)(=O)c2c(C)n[nH]c2C)cc1 | inconclusive: 39.8 µM [inhibitor, partial curve] | 
63 | COC(=O)c1cccc(OCC(O)CN(C)C(C)c2cccs2)c1 (stereo unspecified) | inconclusive: 79.4 µM [inhibitor, single point] | 
64 | NC(=O)CSc1nnc(-c2ccc(S(=O)(=O)N3CCCC3)cc2)n1CC1CCCO1 (stereo unspecified) |  | inactive: 8.68%
65 | COCCCNC(=O)NC(=O)CSc1cc(C)c2cccc(C)c2n1 | inconclusive: 31.6 µM [inhibitor, partial curve] | 
66 | O=C(Nc1ccc2c(c1)OCO2)c1cc(-c2cccnc2)nc2ccccc12 |  | inactive: 0.395%
